Results on two compounds are retold here after patent publication US20150065366A1, “Biomarkers for Bladder Cancer and Methods Using the Same” (METABOLON, INC., priority 2011, published 2015).

The structures appear in SMILES notation. Structures can show the parent of a compound that is named as a salt. Where two headings read alike, the source gives them in different places.

Common to all, as to set-up: species or system human
The nature of series [1]: Metabolomic profiling of urine for monitoring: bladder cancer vs history of bladder cancer (HX). The following applies: fold change of biomarker level in urine, bladder cancer compared to subjects with a history of bladder cancer.
A short description of series [2]: Metabolomic profiling of bladder tissue: bladder cancer (tumor) vs control (benign) samples.
The nature of series [3]: Metabolomic profiling of urine for staging: Low stage BCA, High stage BCA and normal subjects. Particulars: fold change of biomarker level in urine; for FC BCA High/Norm: High stage BCA (T2-T4) compared to normal; for FC BCA Low/Norm: Low stage BCA (CIS, T0, T1) compared to normal; for FC BCA Low/BCA High: Low stage BCA compared to High stage BCA.
Series [4] in a line: Metabolomic profiling of bladder tissue for staging: Low stage BCA (T0a, T1), High stage BCA (T2-T4), Benign.
The nature of series [5]: Study 1: metabolomic profiling (GC-MS/LC-MS) of urine, bladder cancer (TCC) vs control subjects. Particulars: fold change = ratio of mean biomarker level in bladder cancer (TCC) samples to control mean level.

On to `O=C(O)[C@H](O)[C@@H](O)CO` [threonate], for which the “FC BCA/HX” value in series [1] is 0.69. Besides, in series [2], the “BCA/Control Fold of Change” value was 1.35. Besides, in series [3], the “FC BCA High/Norm” value stood at 0.75, the “FC BCA Low/Norm” value worked out at 0.53 and the “FC BCA Low/BCA High” value was determined as 0.71. Besides, in series [4], the “FC T0a-T1 / Benign” value was 1.51, the “FC T2-T4 / Benign” value is given as 1.45 and the “FC T2-T4 / T0a-T1” value amounted to 1. In addition, the “FC TCC/Control (Study 1)” value in series [5] was 1.27.
On to `O=S(=O)(O)Oc1ccccc1` [phenol sulfate], for which, in series [1], the “FC BCA/HX” value is reported as 0.81. Also, the “BCA/Control Fold of Change” value in series [2] (bladder tissue, ratio of mean level in bladder cancer (tumor, 98) samples to control (benign, 31) samples) amounted to 3.45. Moreover, in series [3], the “FC BCA High/Norm” value is listed as 0.99, the “FC BCA Low/Norm” value is recorded as 0.94 and the “FC BCA Low/BCA High” value turned out to be 0.95. Moreover, in series [4] (fold change of biomarker level in tissue, High stage BCA (T2-T4) compared to Low stage BCA (T0a-T1)), the “FC T2-T4 / T0a-T1” value worked out at 1.43. The “FC T2-T4 / Benign” value in series [4] (fold change of biomarker level in tissue, High stage BCA (T2-T4) compared to benign) stood at 2.75. The “FC T0a-T1 / Benign” value in series [4] (fold change of biomarker level in tissue, Low stage BCA (T0a-T1) compared to benign) stood at 1.89. Further, the “FC TCC/Control (Study 1)” value in series [5] is recorded as 0.61.
